# Laboratory results reported in the supplement of paper PMC8728848.
# The other results are listed elsewhere or left out.
# B1: Erv41-EDTA (Saccharomyces cerevisiae), Q04651 (protein)
# chain: MKFLVNVALVFMVVYISYIYAAAPEHHHHHHDYDIPTTENLYFQGAMGYIDQQYVVDSQVRDTVQINMDIYVNTKCDWLQINVRDQTMDRKLVLEELQLEEMPFFIPYDTKVNDINEIITPELDEILGEAIPAEFREKLDTRSFFDESDPNKAHLPEFNGCHVFGSIPVNRVSGELQITAKSLGYVASRKAPLEELKFNHVINEFSFGDFYPYIDNPLDNTAQFNQDEPLTTYVYYTSVVPTLFKKLGAEVDTNQYSVNDYRYLYKDVAAKGDKMPGIFFKYNFEPLSIVVSDVRL
# Key:
# Experiment in all cases: glycan array binding signal (z-score within array); higher = stronger binding
# Settings in all cases: glycan notation: IUPAC condensed, linker removed
# [1] = biological target: Gal(b1-4)GlcNAc(b1-3)Gal(b1-4)GlcNAc(b1-2)Man(a1-3)[Gal(b1-4)GlcNAc(b1-3)Gal(b1-4)GlcNAc(b1-2)Man(a1-6)]Man(b1-4)GlcNAc(b1-4)[Fuc(a1-6)]GlcNAc
# How it was run: (§1)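 Negative Z-scores can be read as non-binding. The Z-score is calculated within each array and then averaged across arrays of one protein sequence at different concentrations or buffers and across linkers. Arrays, 3228 in all, were curated from the Consortium for Functional Glycomics database and kept only where the protein sequence was available.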
# [2] = biological target: Gal(b1-4)GlcNAc(b1-3)Gal(b1-4)GlcNAc(b1-2)[Gal(b1-4)GlcNAc(b1-3)Gal(b1-4)GlcNAc(b1-6)]Man(a1-6)[Gal(b1-4)GlcNAc(b1-3)Gal(b1-4)GlcNAc(b1-2)Man(a1-3)]Man(b1-4)GlcNAc(b1-4)GlcNAc
# How it was run: as §1
# [3] = biological target: Gal(b1-4)GlcNAc(b1-3)Gal(b1-4)GlcNAc(b1-2)[Gal(b1-4)GlcNAc(b1-3)Gal(b1-4)GlcNAc(b1-6)]Man(a1-6)[Gal(b1-4)GlcNAc(b1-3)Gal(b1-4)GlcNAc(b1-2)Man(a1-3)]Man(b1-4)GlcNAc(b1-4)[Fuc(a1-6)]GlcNAc
# How it was run: as §1
# [4] = biological target: Gal(b1-4)GlcNAc(b1-3)Gal(b1-4)GlcNAc(b1-3)Gal(b1-4)GlcNAc
# How it was run: as §1
# [5] = biological target: Gal(b1-4)GlcNAc(b1-3)Gal(b1-4)GlcNAc(b1-3)Gal(b1-4)GlcNAc(b1-2)Man(a1-3)[Gal(b1-4)GlcNAc(b1-3)Gal(b1-4)GlcNAc(b1-3)Gal(b1-4)GlcNAc(b1-2)Man(a1-6)]Man(b1-4)GlcNAc(b1-4)GlcNAc
# How it was run: as §1
# [6] = biological target: Gal(b1-4)GlcNAc(b1-3)Gal(b1-4)GlcNAc(b1-3)Gal(b1-4)GlcNAc(b1-2)Man(a1-3)[Gal(b1-4)GlcNAc(b1-3)Gal(b1-4)GlcNAc(b1-3)Gal(b1-4)GlcNAc(b1-2)Man(a1-6)]Man(b1-4)GlcNAc(b1-4)[Fuc(a1-6)]GlcNAc
# How it was run: as §1
# [7] = biological target: Gal(b1-4)GlcNAc(b1-3)Gal(b1-4)GlcNAc(b1-3)Gal(b1-4)GlcNAc(b1-2)[Gal(b1-4)GlcNAc(b1-3)Gal(b1-4)GlcNAc(b1-3)Gal(b1-4)GlcNAc(b1-6)]Man(a1-6)[Gal(b1-4)GlcNAc(b1-3)Gal(b1-4)GlcNAc(b1-3)Gal(b1-4)GlcNAc(b1-2)Man(a1-3)]Man(b1-4)GlcNAc(b1-4)[Fuc(a1-6)]GlcNAc
# How it was run: as §1
# [8] = biological target: Gal(b1-4)GlcNAc(b1-3)Gal(b1-4)GlcNAc(b1-3)Gal(b1-4)GlcNAc(b1-3)Gal(b1-4)GlcNAc(b1-2)Man(a1-3)[Gal(b1-4)GlcNAc(b1-3)Gal(b1-4)GlcNAc(b1-3)Gal(b1-4)GlcNAc(b1-3)Gal(b1-4)GlcNAc(b1-2)Man(a1-6)]Man(b1-4)GlcNAc(b1-4)GlcNAc
# How it was run: as §1
# [9] = biological target: Gal(b1-4)GlcNAc(b1-3)Gal(b1-4)GlcNAc(b1-3)Gal(b1-4)GlcNAc(b1-3)Gal(b1-4)GlcNAc(b1-2)Man(a1-3)[Gal(b1-4)GlcNAc(b1-3)Gal(b1-4)GlcNAc(b1-3)Gal(b1-4)GlcNAc(b1-3)Gal(b1-4)GlcNAc(b1-2)Man(a1-6)]Man(b1-4)GlcNAc(b1-4)[Fuc(a1-6)]GlcNAc
# How it was run: as §1
# [10] = biological target: Gal(b1-4)GlcNAc(b1-3)Gal(b1-4)GlcNAc(b1-3)Gal(b1-4)GlcNAc(b1-3)Gal(b1-4)GlcNAc(b1-2)[Gal(b1-4)GlcNAc(b1-3)Gal(b1-4)GlcNAc(b1-3)Gal(b1-4)GlcNAc(b1-3)Gal(b1-4)GlcNAc(b1-6)]Man(a1-6)[Gal(b1-4)GlcNAc(b1-3)Gal(b1-4)GlcNAc(b1-3)Gal(b1-4)GlcNAc(b1-3)Gal(b1-4)GlcNAc(b1-2)Man(a1-3)]Man(b1-4)GlcNAc(b1-4)[Fuc(a1-6)]GlcNAc
# How it was run: as §1
# [11] = biological target: Gal(b1-4)GlcNAc(b1-3)Gal(b1-4)GlcNAc(b1-3)Gal(b1-4)GlcNAc(b1-3)Gal(b1-4)GlcNAc(b1-3)Gal(b1-4)GlcNAc(b1-2)Man(a1-3)[Gal(b1-4)GlcNAc(b1-3)Gal(b1-4)GlcNAc(b1-3)Gal(b1-4)GlcNAc(b1-3)Gal(b1-4)GlcNAc(b1-3)Gal(b1-4)GlcNAc(b1-2)Man(a1-6)]Man(b1-4)GlcNAc(b1-4)GlcNAc
# How it was run: as §1
# [12] = biological target: Gal(b1-4)GlcNAc(b1-3)Gal(b1-4)GlcNAc(b1-3)Gal(b1-4)GlcNAc(b1-3)Gal(b1-4)GlcNAc(b1-3)Gal(b1-4)GlcNAc(b1-2)Man(a1-3)[Gal(b1-4)GlcNAc(b1-3)Gal(b1-4)GlcNAc(b1-3)Gal(b1-4)GlcNAc(b1-3)Gal(b1-4)GlcNAc(b1-3)Gal(b1-4)GlcNAc(b1-2)Man(a1-6)]Man(b1-4)GlcNAc(b1-4)[Fuc(a1-6)]GlcNAc
# How it was run: as §1
# [13] = biological target: Gal(b1-4)GlcNAc(b1-3)Gal(b1-4)GlcNAc(b1-3)Gal(b1-4)GlcNAc(b1-3)Gal(b1-4)GlcNAc(b1-3)Gal(b1-4)GlcNAc(b1-2)[Gal(b1-4)GlcNAc(b1-3)Gal(b1-4)GlcNAc(b1-3)Gal(b1-4)GlcNAc(b1-3)Gal(b1-4)GlcNAc(b1-3)Gal(b1-4)GlcNAc(b1-6)]Man(a1-6)[Gal(b1-4)GlcNAc(b1-3)Gal(b1-4)GlcNAc(b1-3)Gal(b1-4)GlcNAc(b1-3)Gal(b1-4)GlcNAc(b1-3)Gal(b1-4)GlcNAc(b1-2)Man(a1-3)]Man(b1-4)GlcNAc(b1-4)[Fuc(a1-6)]GlcNAc
# How it was run: as §1
# [14] = biological target: Gal(b1-4)GlcNAc(b1-3)Gal(b1-4)GlcNAc(b1-3)Gal(b1-4)GlcNAc(b1-3)Gal(b1-4)GlcNAc(b1-3)Gal(b1-4)GlcNAc(b1-3)Gal(b1-4)GlcNAc(b1-2)Man(a1-3)[Gal(b1-4)GlcNAc(b1-3)Gal(b1-4)GlcNAc(b1-3)Gal(b1-4)GlcNAc(b1-3)Gal(b1-4)GlcNAc(b1-3)Gal(b1-4)GlcNAc(b1-3)Gal(b1-4)GlcNAc(b1-2)Man(a1-6)]Man(b1-4)GlcNAc(b1-4)GlcNAc
# How it was run: as §1
# [15] = biological target: Gal(b1-4)GlcNAc(b1-3)Gal(b1-4)GlcNAc(b1-3)GalNAc
# How it was run: as §1
# [16] = biological target: Gal(b1-4)GlcNAc(b1-3)Gal(b1-4)GlcNAc(b1-3)[Gal(b1-4)GlcNAc(b1-3)Gal(b1-4)GlcNAc(b1-6)]GalNAc
# How it was run: as §1
# [17] = biological target: Gal(b1-4)GlcNAc(b1-3)Gal(b1-4)GlcNAc(b1-6)[Gal(b1-3)]GalNAc
# How it was run: as §1
# [18] = biological target: Gal(b1-4)GlcNAc(b1-3)Gal(b1-4)[Fuc(a1-3)]GlcNAc(b1-3)Gal(b1-4)[Fuc(a1-3)]GlcNAc
# How it was run: as §1
# [19] = biological target: Gal(b1-4)GlcNAc(b1-3)GalNAc
# How it was run: as §1
# [20] = biological target: Gal(b1-4)GlcNAc(b1-3)[Fuc(a1-3)GlcNAc(b1-6)]Gal(b1-4)Glc
# How it was run: as §1
# [21] = biological target: Gal(b1-4)GlcNAc(b1-3)[Gal(b1-4)GlcNAc(b1-6)]Gal(b1-4)GlcNAc
# How it was run: as §1
# [22] = biological target: Gal(b1-4)GlcNAc(b1-3)[GlcNAc(b1-6)]Gal(b1-4)GlcNAc
# How it was run: as §1
# [23] = biological target: Gal(b1-4)GlcNAc(b1-6)Gal(b1-4)GlcNAc
# How it was run: as §1
# [24] = biological target: Gal(b1-4)GlcNAc(b1-6)GalNAc
# How it was run: as §1
# [25] = biological target: Gal(b1-4)GlcNAc(b1-6)[Gal(b1-3)]GalNAc
# How it was run: as §1
# [26] = biological target: Gal(b1-4)GlcNAc(b1-6)[Gal(b1-4)GlcNAc(b1-3)]GalNAc
# How it was run: as §1
# Gal(b1-4)GlcNAc6P = biological target: Gal(b1-4)GlcNAc6P
# How it was run: as §1
# Gal(b1-6)Gal = biological target: Gal(b1-6)Gal
# How it was run: as §1
# Gal3S(b1-3)GalNAc = biological target: Gal3S(b1-3)GalNAc
# How it was run: as §1
# Gal3S(b1-3)GlcNAc = biological target: Gal3S(b1-3)GlcNAc
# How it was run: as §1
# [27] = biological target: Gal3S(b1-3)[Fuc(a1-4)]GlcNAc
# How it was run: as §1
# Gal3S(b1-4)Glc = biological target: Gal3S(b1-4)Glc
# How it was run: as §1
# Gal3S(b1-4)Glc6S = biological target: Gal3S(b1-4)Glc6S
# How it was run: as §1
# Gal3S(b1-4)GlcNAc = biological target: Gal3S(b1-4)GlcNAc
# How it was run: as §1
# [28] = biological target: Gal3S(b1-4)[Fuc(a1-3)]Glc6S
# How it was run: as §1
# [29] = biological target: Gal3S(b1-4)[Fuc(a1-3)]GlcNAc
# How it was run: as §1
# [30] = biological target: Gal3S(b1-4)[Fuc(a1-3)]GlcNAc6S
# How it was run: as §1
binder,measurement,setting,value
B1,glycan array binding signal (z-score),[1],-0.228
same,glycan array binding signal (z-score),[2],1.33
same,glycan array binding signal (z-score),[3],0.622
same,glycan array binding signal (z-score),[4],-0.956
same,glycan array binding signal (z-score),[5],0.872
same,glycan array binding signal (z-score),[6],1.64
same,glycan array binding signal (z-score),[7],2.65
same,glycan array binding signal (z-score),[8],1.94
same,glycan array binding signal (z-score),[9],2.2
same,glycan array binding signal (z-score),[10],2.63
same,glycan array binding signal (z-score),[11],0.141
same,glycan array binding signal (z-score),[12],3.41
same,glycan array binding signal (z-score),[13],1.44
same,glycan array binding signal (z-score),[14],-0.945
same,glycan array binding signal (z-score),[15],0.781
same,glycan array binding signal (z-score),[16],1.32
same,glycan array binding signal (z-score),[17],0.677
same,glycan array binding signal (z-score),[18],-0.588
same,glycan array binding signal (z-score),[19],0.248
same,glycan array binding signal (z-score),[20],0.097
same,glycan array binding signal (z-score),[21],-1.1
same,glycan array binding signal (z-score),[22],0.001
same,glycan array binding signal (z-score),[23],-0.545
same,glycan array binding signal (z-score),[24],1.98
same,glycan array binding signal (z-score),[25],-0.095
same,glycan array binding signal (z-score),[26],-0.147
same,glycan array binding signal (z-score),Gal(b1-4)GlcNAc6P,-0.278
same,glycan array binding signal (z-score),Gal(b1-6)Gal,0.242
same,glycan array binding signal (z-score),Gal3S(b1-3)GalNAc,0.809
same,glycan array binding signal (z-score),Gal3S(b1-3)GlcNAc,0.781
same,glycan array binding signal (z-score),[27],-0.344
same,glycan array binding signal (z-score),Gal3S(b1-4)Glc,0.725
same,glycan array binding signal (z-score),Gal3S(b1-4)Glc6S,-0.519
same,glycan array binding signal (z-score),Gal3S(b1-4)GlcNAc,0.355
same,glycan array binding signal (z-score),[28],1.48
same,glycan array binding signal (z-score),[29],1.03
same,glycan array binding signal (z-score),[30],1.08

# A different layout for some results above:
binder | measurement | setting | value
B1 | glycan array binding signal (z-score) | [17] | 0.677
same | glycan array binding signal (z-score) | [18] | -0.588
same | glycan array binding signal (z-score) | [19] | 0.248
same | glycan array binding signal (z-score) | [20] | 0.097
same | glycan array binding signal (z-score) | [21] | -1.1
same | glycan array binding signal (z-score) | [22] | 0.001
same | glycan array binding signal (z-score) | [23] | -0.545
